{"source": "patent US11413261B2", "about": "“Pharmaceutical composition for treating cancer comprising lactate metal salt” (METIMEDI PHARMACEUTICALS CO., LTD, priority 2014, dated 2022)", "test_system": "human colorectal cancer cell line (HT-29)", "test": "Colony-forming ability, anticancer drug in combination with calcium lactate (6-well plates)", "type": "cell-based", "settings": "0.5, 1, 2 μM Sunitinib alone, vs control", "experimental": "(§1) Human colorectal cancer cell line (HT-29) with the cell number of 1×10^3 cells were seeded into an RPMI1640 medium in each of 6-well plates. […]. Then, the colony-forming abilities of the cells were compared. In this case, a human colorectal cancer cell line (HT-29) untreated with any drug was used as a control group (FIGS. 46a and 46b).\nas §1, with “48a” for “46a”, “48b).” for “46b).”\nas §1, with “(FIG. 55).” for “(FIGS. 46a and 46b).”", "note": "For at least one compound, name, drawing or mass did not settle the structure."}
{"smiles": "CCN(CC)CCNC(=O)c1c(C)[nH]c(/C=C2\\C(=O)Nc3ccc(F)cc32)c1C", "note": "[Sunitinib]", "values": [{"measurement": "colony-forming ability", "result": "suppressed"}]}
